Laboratory results as given in patent US12258368B2, “Disulfide-linked reversible terminators” (CENTRILLION TECHNOLOGY HOLDINGS CORPORATION, priority 2018, dated 2025).

Assay: Cleavage studies: removal of 3′ blocking group and label from the incorporated terminator

| Structure (SMILES) | cleavage of the 3′ blocking group along with the labeled linker tag (after the treatment with DTT, FIG. 4 lane 5) | cleavage of the label and the blocking group (FIG. 2 lane 5, reagent not given) |
| --- | --- | --- |
| CSSCO[C@@H]1C[C@H](n2cc(C#CCNC(=O)OCCSSCCNC(=O)c3ccc(C4=c5cc6c(cc5Oc5cc7c(cc54)C(CS(=O)(=O)O)=CC(C)(C)N7)=NC(C)(C)C=C6CS(=O)(=O)O)cc3C(=O)O)c(=O)[nH]c2=O)O[C@@H]1COP(=O)(O)OP(=O)(O)OP(=O)(O)O [compound 75, (6-(3-carboxy-4-((2-((2-(((3-(1-((2R,4R,5R)-5-(((hydroxy((hydroxy(phosphonooxy)phosphoryl)oxy)phosphoryl)oxy)methyl)-4-((methyldisulfaneyl)methoxy)tetrahydrofuran-2-yl)-2,4-dioxo-1,2,3,4-tetrahydropyrimidin-5-yl)prop-2-yn-1-yl)carbamoyl)oxy)ethyl)disulfaneyl)ethyl)carbamoyl)phenyl)-2,2,10,10-tetramethyl-8-(sulfomethyl)-10,11-dihydro-2H-pyrano[3,2-g:5,6-g′]diquinolin-1-ium-4-yl)methanesulfonate] | simultaneous cleavage of the 3′ blocking group along with the labeled linker tag can be observed |  |
| CC(=O)SCO[C@H]1C[C@H](n2cc(C#CCNC(=O)OC(C)(C)C)c(=O)[nH]c2=O)O[C@@H]1COP(=O)(O)OP(=O)(O)OP(=O)(O)O [compound 60, S-((((2R,3S,5R)-5-(5-(3-((tert-butoxycarbonyl)amino)prop-1-yn-1-yl)-2,4-dioxo-3,4-dihydropyrimidin-1 (2H)-yl)-2-(((hydroxy((hydroxy(phosphonooxy)phosphoryl)oxy)phosphoryl)oxy)methyl)tetrahydrofuran-3-yl)oxy)methyl) ethanethioate] |  | cleavage of the label and the blocking group |
